PMC12455829
No constants are given. Whether binding was seen depends on the method and setting. In cells and extracts the contact can be indirect. A yes stands for co-enrichment or nearness to the bait. Other partners may have been found.

Amino acid sequences for entries named in this document (tags omitted).
UniProt P51532: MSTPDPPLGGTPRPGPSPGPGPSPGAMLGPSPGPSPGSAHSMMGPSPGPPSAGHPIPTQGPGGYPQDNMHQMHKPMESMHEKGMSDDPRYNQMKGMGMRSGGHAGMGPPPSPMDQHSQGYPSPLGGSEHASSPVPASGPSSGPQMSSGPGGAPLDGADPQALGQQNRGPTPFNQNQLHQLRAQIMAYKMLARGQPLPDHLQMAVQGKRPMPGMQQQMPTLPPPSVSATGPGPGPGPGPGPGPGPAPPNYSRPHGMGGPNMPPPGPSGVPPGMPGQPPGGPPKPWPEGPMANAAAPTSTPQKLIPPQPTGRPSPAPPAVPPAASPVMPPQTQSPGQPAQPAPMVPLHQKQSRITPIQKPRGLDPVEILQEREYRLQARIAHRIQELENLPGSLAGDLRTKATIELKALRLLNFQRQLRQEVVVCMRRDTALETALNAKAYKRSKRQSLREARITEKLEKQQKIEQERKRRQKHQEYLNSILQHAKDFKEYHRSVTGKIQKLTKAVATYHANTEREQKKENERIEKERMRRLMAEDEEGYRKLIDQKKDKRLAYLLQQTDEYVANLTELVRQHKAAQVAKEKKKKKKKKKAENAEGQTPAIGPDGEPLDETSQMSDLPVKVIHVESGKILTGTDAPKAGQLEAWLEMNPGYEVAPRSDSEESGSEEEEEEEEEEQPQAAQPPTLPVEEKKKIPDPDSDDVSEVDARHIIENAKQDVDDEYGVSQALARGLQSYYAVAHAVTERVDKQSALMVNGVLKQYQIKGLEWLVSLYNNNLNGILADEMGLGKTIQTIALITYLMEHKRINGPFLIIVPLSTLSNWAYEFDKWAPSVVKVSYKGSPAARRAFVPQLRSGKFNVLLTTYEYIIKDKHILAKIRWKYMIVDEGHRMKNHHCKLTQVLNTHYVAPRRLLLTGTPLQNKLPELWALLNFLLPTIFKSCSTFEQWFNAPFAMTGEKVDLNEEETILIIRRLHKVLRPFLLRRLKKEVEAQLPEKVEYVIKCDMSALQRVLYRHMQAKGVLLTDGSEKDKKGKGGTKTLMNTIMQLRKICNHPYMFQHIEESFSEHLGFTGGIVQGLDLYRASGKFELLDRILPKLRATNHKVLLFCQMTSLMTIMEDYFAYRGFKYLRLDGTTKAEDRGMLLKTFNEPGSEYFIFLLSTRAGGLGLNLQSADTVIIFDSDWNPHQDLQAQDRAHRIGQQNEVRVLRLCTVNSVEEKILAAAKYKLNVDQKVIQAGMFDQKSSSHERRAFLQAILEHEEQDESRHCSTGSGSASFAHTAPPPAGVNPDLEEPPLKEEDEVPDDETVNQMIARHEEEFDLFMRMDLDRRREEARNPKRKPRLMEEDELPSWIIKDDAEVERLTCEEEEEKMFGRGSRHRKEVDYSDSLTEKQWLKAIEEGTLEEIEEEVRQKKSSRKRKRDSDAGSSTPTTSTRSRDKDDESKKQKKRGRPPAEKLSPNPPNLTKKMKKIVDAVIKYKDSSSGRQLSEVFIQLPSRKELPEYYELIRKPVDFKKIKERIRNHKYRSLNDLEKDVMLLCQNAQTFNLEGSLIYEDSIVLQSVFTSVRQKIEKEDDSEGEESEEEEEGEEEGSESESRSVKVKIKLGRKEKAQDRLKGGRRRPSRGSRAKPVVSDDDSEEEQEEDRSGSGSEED

Target: BRG1 (human (endogenous in MLS 402-91 and EWS TC-71)) (UniProt P51532)
Experiment: affinity purification with mass spectrometry; BRG1 IP: biotinylated BRG1 antibody on streptavidin magnetic beads, 50 µg nuclear extract of MLS 402-91 or of EWS TC-71 cells, 150 mM KCl, 10 mM Tris pH 7.5, overnight at 4 °C; TMT quantitative mass spectrometry; hits > 1.5-fold over the IgG control

binding	Binder
binds	ZNF609 (protein, UniProt O15014 1-1411) MSLSSGASGGKGVDANPVETYDSGDEWDIGVGNLIIDLDADLEKDQQKLEMSGSKEVGIPAPNAVATLPDNIKFVTPVPGPQGKEGKSKSKRSKSGKDTSKPTPGTSLFTPSEGAASKKEVQGRSGDGANAGGLVAAIAPKGSEKAAKASRSVAGSKKEKENSSSKSKKERSEGVGTCSEKDPGVLQPVPLGGRGGQYDGSAGVDTGAVEPLGSIAIEPGAALNPLGTKPEPEEGENECRLLKKVKSEKMESPVSTPAVLPIHLLVPVVNNDISSPCEQIMVRTRSVGVNTCDVALATEPECLGPCEPGTSVNLEGIVWQETEDGMLVVNVTWRNKTYVGTLLDCTRHDWAPPRFCDSPTSDLEMRNGRGRGKRMRPNSNTPVNETATASDSKGTSNSSKTRAGANSKGRRGSQNSSEHRPPASSTSEDVKASPSSANKRKNKPLSDMELNSSSEDSKGSKRVRTNSMGSATGPLPGTKVEPTVLDRNCPSPVLIDCPHPNCNKKYKHINGLKYHQAHAHTDDDSKPEADGDSEYGEEPILHADLGSCNGASVSQKGSLSPARSATPKVRLVEPHSPSPSSKFSTKGLCKKKLSGEGDTDLGALSNDGSDDGPSVMDETSNDAFDSLERKCMEKEKCKKPSSLKPEKIPSKSLKSARPIAPAIPPQQIYTFQTATFTAASPGSSSGLTATVAQAMPNSPQLKPIQPKPTVMGEPFTVNPALTPAKDKKKKDKKKKESSKELESPLTPGKVCRAEEGKSPFRESSGDGMKMEGLLNGSSDPHQSRLASIKAEADKIYSFTDNAPSPSIGGSSRLENTTPTQPLTPLHVVTQNGAEASSVKTNSPAYSDISDAGEDGEGKVDSVKSKDAEQLVKEGAKKTLFPPQPQSKDSPYYQGFESYYSPSYAQSSPGALNPSSQAGVESQALKTKRDEEPESIEGKVKNDICEEKKPELSSSSQQPSVIQQRPNMYMQSLYYNQYAYVPPYGYSDQSYHTHLLSTNTAYRQQYEEQQKRQSLEQQQRGVDKKAEMGLKEREAALKEEWKQKPSIPPTLTKAPSLTDLVKSGPGKAKEPGADPAKSVIIPKLDDSSKLPGQAPEGLKVKLSDASHLSKEASEAKTGAECGRQAEMDPILWYRQEAEPRMWTYVYPAKYSDIKSEDERWKEERDRKLKEERSRSKDSVPKEDGKESTSSDCKLPTSEESRLGSKEPRPSVHVPVSSPLTQHQSYIPYMHGYSYSQSYDPNHPSYRSMPAVMMQNYPGSYLPSSYSFSPYGSKVSGGEDADKARASPSVTCKSSSESKALDILQQHASHYKSKSPTISDKTSQERDRGGCGVVGGGGSCSSVGGASGGERSVDRPRTSPSQRLMSTHHHHHHLGYSLLPAQYNLPYAAGLSSTAIVASQQGSTPSLYPPPRR
binds	ZNF512 (protein, UniProt Q96ME7 1-567) MSSRLGAVPATSGPTTFKQQRSTRIVGAKNSRTQCSIKDNSFQYTIPHDDSLSGSSSASSCEPVSDFPASFRKSTYWMKMRRIKPAATSHVEGSGGVSAKGKRKPRQEEDEDYREFPQKKHKLYGRKQRPKTQPNPKSQARRIRKEPPVYAAGSLEEQWYLEIVDKGSVSCPTCQAVGRKTIEGLKKHMENCKQEMFTCHHCGKQLRSLAGMKYHVMANHNSLPILKAGDEIDEPSERERLRTVLKRLGKLRCMRESCSSSFTSIMGYLYHVRKCGKGAAELEKMTLKCHHCGKPYRSKAGLAYHLRSEHGPISFFPESGQPECLKEMNLESKSGGRVQRRSAKIAVYHLQELASAELAKEWPKRKVLQDLVPDDRKLKYTRPGLPTFSQEVLHKWKTDIKKYHRIQCPNQGCEAVYSSVSGLKAHLGSCTLGNFVAGKYKCLLCQKEFVSESGVKYHINSVHAEDWFVVNPTTTKSFEKLMKIKQRQQEEEKRRQQHRSRRSLRRRQQPGIELPETELSLRVGKDQRRNNEELVVSASCKEPEQEPVPAQFQKVKPPKTNHKRGRK
binds	POU3F1 (protein, UniProt Q03052 1-451) MATTAQYLPRGPGGGAGGTGPLMHPDAAAAAAAAAAAERLHAGAAYREVQKLMHHEWLGAGAGHPVGLAHPQWLPTGGGGGGDWAGGPHLEHGKAGGGGTGRADDGGGGGGFHARLVHQGAAHAGAAWAQGSTAHHLGPAMSPSPGASGGHQPQPLGLYAQAAYPGGGGGGLAGMLAAGGGGAGPGLHHALHEDGHEAQLEPSPPPHLGAHGHAHGHAHAGGLHAAAAHLHPGAGGGGSSVGEHSDEDAPSSDDLEQFAKQFKQRRIKLGFTQADVGLALGTLYGNVFSQTTICRFEALQLSFKNMCKLKPLLNKWLEETDSSSGSPTNLDKIAAQGRKRKKRTSIEVGVKGALESHFLKCPKPSAHEITGLADSLQLEKEVVRVWFCNRRQKEKRMTPAAGAGHPPMDDVYAPGELGPGGGGASPPSAPPPPPPAALHHHHHHTLPGSVQ
binds	ZNF598 (protein, UniProt Q86UK7 1-904) MAAAGGAEGRRAALEAAAAAAPERGGGSCVLCCGDLEATALGRCDHPVCYRCSTKMRVLCEQRYCAVCREELRQVVFGKKLPAFATIPIHQLQHEKKYDIYFADGKVYALYRQLLQHECPRCPELPPFSLFGDLEQHMRRQHELFCCRLCLQHLQIFTYERKWYSRKDLARHRMQGDPDDTSHRGHPLCKFCDERYLDNDELLKHLRRDHYFCHFCDSDGAQDYYSDYAYLREHFREKHFLCEEGRCSTEQFTHAFRTEIDLKAHRTACHSRSRAEARQNRHIDLQFSYAPRHSRRNEGVVGGEDYEEVDRYSRQGRVARAGTRGAQQSRRGSWRYKREEEDREVAAAVRASVAAQQQEEARRSEDQEEGGRPKKEEAAARGPEDPRGPRRSPRTQGEGPGPKETSTNGPVSQEAFSVTGPAAPGCVGVPGALPPPSPKLKDEDFPSLSASTSSSCSTAATPGPVGLALPYAIPARGRSAFQEEDFPALVSSVPKPGTAPTSLVSAWNSSSSSKKVAQPPLSAQATGSGQPTRKAGKGSRGGRKGGPPFTQEEEEDGGPALQELLSTRPTGSVSSTLGLASIQPSKVGKKKKVGSEKPGTTLPQPPPATCPPGALQAPEAPASRAEGPVAVVVNGHTEGPAPARSAPKEPPGLPRPLGSFPCPTPQEDFPALGGPCPPRMPPPPGFSAVVLLKGTPPPPPPGLVPPISKPPPGFSGLLPSPHPACVPSPATTTTTKAPRLLPAPRAYLVPENFRERNLQLIQSIRDFLQSDEARFSEFKSHSGEFRQGLISAAQYYKSCRDLLGENFQKVFNELLVLLPDTAKQQELLSAHTDFCNREKPLSTKSKKNKKSAWQATTQQAGLDCRVCPTCQQVLAHGDASSHQALHAARDDDFPSLQAIARIIT

The remaining lines, values behind:

Binder	binding
JUND (protein, UniProt P17535 1-347) METPFYGDEALSGLGGGASGSGGSFASPGRLFPGAPPTAAAGSMMKKDALTLSLSEQVAAALKPAAAPPPTPLRADGAPSAAPPDGLLASPDLGLLKLASPELERLIIQSNGLVTTTPTSSQFLYPKVAASEEQEFAEGFVKALEDLHKQNQLGAGAAAAAAAAAAGGPSGTATGSAPPGELAPAAAAPEAPVYANLSSYAGGAGGAGGAATVAFAAEPVPFPPPPPPGALGPPRLAALKDEPQTVPDVPSFGESPPLSPIDMDTQERIKAERKRLRNRIAASKCRKRKLERISRLEEKVKTLKSQNTELASTASLLREQVAQLKQKVLSHVNSGCQLLPQHQVPAY	binds
RB1 (protein, UniProt P06400 1-928) MPPKTPRKTAATAAAAAAEPPAPPPPPPPEEDPEQDSGPEDLPLVRLEFEETEEPDFTALCQKLKIPDHVRERAWLTWEKVSSVDGVLGGYIQKKKELWGICIFIAAVDLDEMSFTFTELQKNIEISVHKFFNLLKEIDTSTKVDNAMSRLLKKYDVLFALFSKLERTCELIYLTQPSSSISTEINSALVLKVSWITFLLAKGEVLQMEDDLVISFQLMLCVLDYFIKLSPPMLLKEPYKTAVIPINGSPRTPRRGQNRSARIAKQLENDTRIIEVLCKEHECNIDEVKNVYFKNFIPFMNSLGLVTSNGLPEVENLSKRYEEIYLKNKDLDARLFLDHDKTLQTDSIDSFETQRTPRKSNLDEEVNVIPPHTPVRTVMNTIQQLMMILNSASDQPSENLISYFNNCTVNPKESILKRVKDIGYIFKEKFAKAVGQGCVEIGSQRYKLGVRLYYRVMESMLKSEEERLSIQNFSKLLNDNIFHMSLLACALEVVMATYSRSTSQNLDSGTDLSFPWILNVLNLKAFDFYKVIESFIKAEGNLTREMIKHLERCEHRIMESLAWLSDSPLFDLIKQSKDREGPTDHLESACPLNLPLQNNHTAADMYLSPVRSPKKKGSTTRVNSTANAETQATSAFQTQKPLKSTSLSLFYKKVYRLAYLRLNTLCERLLSEHPELEHIIWTLFQHTLQNEYELMRDRHLDQIMMCSMYGICKVKNIDLKFKIIVTAYKDLPHAVQETFKRVLIKEEEYDSIIVFYNSVFMQRLKTNILQYASTRPPTLSPIPHIPRSPYKFPSSPLRIPGGNIYISPLKSPYKISEGLPTPTKMTPRSRILVSIGESFGTSEKFQKINQMVCNSDRVLKRSAEGSNPPKPLKKLRFDIEGSDEADGSKHLPGESKFQQKLAEMTSTRTRMQKQKMNDSMDTSNKEEK	binds
JUNB (protein, UniProt P17275 1-347) MCTKMEQPFYHDDSYTATGYGRAPGGLSLHDYKLLKPSLAVNLADPYRSLKAPGARGPGPEGGGGGSYFSGQGSDTGASLKLASSELERLIVPNSNGVITTTPTPPGQYFYPRGGGSGGGAGGAGGGVTEEQEGFADGFVKALDDLHKMNHVTPPNVSLGATGGPPAGPGGVYAGPEPPPVYTNLSSYSPASASSGGAGAAVGTGSSYPTTTISYLPHAPPFAGGHPAQLGLGRGASTFKEEPQTVPEARSRDATPPVSPINMEDQERIKVERKRLRNRLAATKCRKRKLERIARLEDKVKTLKAENAGLSSTAGLLREQVAQLKQKVMTHVSNGCQLLLGVKGHAF	binds
